The values below come from publication PMC8894352.

Amino acid sequences for entries named in this document (tags omitted). Residues count along the entry.
UniProt Q91ZX7, residues 20-4545: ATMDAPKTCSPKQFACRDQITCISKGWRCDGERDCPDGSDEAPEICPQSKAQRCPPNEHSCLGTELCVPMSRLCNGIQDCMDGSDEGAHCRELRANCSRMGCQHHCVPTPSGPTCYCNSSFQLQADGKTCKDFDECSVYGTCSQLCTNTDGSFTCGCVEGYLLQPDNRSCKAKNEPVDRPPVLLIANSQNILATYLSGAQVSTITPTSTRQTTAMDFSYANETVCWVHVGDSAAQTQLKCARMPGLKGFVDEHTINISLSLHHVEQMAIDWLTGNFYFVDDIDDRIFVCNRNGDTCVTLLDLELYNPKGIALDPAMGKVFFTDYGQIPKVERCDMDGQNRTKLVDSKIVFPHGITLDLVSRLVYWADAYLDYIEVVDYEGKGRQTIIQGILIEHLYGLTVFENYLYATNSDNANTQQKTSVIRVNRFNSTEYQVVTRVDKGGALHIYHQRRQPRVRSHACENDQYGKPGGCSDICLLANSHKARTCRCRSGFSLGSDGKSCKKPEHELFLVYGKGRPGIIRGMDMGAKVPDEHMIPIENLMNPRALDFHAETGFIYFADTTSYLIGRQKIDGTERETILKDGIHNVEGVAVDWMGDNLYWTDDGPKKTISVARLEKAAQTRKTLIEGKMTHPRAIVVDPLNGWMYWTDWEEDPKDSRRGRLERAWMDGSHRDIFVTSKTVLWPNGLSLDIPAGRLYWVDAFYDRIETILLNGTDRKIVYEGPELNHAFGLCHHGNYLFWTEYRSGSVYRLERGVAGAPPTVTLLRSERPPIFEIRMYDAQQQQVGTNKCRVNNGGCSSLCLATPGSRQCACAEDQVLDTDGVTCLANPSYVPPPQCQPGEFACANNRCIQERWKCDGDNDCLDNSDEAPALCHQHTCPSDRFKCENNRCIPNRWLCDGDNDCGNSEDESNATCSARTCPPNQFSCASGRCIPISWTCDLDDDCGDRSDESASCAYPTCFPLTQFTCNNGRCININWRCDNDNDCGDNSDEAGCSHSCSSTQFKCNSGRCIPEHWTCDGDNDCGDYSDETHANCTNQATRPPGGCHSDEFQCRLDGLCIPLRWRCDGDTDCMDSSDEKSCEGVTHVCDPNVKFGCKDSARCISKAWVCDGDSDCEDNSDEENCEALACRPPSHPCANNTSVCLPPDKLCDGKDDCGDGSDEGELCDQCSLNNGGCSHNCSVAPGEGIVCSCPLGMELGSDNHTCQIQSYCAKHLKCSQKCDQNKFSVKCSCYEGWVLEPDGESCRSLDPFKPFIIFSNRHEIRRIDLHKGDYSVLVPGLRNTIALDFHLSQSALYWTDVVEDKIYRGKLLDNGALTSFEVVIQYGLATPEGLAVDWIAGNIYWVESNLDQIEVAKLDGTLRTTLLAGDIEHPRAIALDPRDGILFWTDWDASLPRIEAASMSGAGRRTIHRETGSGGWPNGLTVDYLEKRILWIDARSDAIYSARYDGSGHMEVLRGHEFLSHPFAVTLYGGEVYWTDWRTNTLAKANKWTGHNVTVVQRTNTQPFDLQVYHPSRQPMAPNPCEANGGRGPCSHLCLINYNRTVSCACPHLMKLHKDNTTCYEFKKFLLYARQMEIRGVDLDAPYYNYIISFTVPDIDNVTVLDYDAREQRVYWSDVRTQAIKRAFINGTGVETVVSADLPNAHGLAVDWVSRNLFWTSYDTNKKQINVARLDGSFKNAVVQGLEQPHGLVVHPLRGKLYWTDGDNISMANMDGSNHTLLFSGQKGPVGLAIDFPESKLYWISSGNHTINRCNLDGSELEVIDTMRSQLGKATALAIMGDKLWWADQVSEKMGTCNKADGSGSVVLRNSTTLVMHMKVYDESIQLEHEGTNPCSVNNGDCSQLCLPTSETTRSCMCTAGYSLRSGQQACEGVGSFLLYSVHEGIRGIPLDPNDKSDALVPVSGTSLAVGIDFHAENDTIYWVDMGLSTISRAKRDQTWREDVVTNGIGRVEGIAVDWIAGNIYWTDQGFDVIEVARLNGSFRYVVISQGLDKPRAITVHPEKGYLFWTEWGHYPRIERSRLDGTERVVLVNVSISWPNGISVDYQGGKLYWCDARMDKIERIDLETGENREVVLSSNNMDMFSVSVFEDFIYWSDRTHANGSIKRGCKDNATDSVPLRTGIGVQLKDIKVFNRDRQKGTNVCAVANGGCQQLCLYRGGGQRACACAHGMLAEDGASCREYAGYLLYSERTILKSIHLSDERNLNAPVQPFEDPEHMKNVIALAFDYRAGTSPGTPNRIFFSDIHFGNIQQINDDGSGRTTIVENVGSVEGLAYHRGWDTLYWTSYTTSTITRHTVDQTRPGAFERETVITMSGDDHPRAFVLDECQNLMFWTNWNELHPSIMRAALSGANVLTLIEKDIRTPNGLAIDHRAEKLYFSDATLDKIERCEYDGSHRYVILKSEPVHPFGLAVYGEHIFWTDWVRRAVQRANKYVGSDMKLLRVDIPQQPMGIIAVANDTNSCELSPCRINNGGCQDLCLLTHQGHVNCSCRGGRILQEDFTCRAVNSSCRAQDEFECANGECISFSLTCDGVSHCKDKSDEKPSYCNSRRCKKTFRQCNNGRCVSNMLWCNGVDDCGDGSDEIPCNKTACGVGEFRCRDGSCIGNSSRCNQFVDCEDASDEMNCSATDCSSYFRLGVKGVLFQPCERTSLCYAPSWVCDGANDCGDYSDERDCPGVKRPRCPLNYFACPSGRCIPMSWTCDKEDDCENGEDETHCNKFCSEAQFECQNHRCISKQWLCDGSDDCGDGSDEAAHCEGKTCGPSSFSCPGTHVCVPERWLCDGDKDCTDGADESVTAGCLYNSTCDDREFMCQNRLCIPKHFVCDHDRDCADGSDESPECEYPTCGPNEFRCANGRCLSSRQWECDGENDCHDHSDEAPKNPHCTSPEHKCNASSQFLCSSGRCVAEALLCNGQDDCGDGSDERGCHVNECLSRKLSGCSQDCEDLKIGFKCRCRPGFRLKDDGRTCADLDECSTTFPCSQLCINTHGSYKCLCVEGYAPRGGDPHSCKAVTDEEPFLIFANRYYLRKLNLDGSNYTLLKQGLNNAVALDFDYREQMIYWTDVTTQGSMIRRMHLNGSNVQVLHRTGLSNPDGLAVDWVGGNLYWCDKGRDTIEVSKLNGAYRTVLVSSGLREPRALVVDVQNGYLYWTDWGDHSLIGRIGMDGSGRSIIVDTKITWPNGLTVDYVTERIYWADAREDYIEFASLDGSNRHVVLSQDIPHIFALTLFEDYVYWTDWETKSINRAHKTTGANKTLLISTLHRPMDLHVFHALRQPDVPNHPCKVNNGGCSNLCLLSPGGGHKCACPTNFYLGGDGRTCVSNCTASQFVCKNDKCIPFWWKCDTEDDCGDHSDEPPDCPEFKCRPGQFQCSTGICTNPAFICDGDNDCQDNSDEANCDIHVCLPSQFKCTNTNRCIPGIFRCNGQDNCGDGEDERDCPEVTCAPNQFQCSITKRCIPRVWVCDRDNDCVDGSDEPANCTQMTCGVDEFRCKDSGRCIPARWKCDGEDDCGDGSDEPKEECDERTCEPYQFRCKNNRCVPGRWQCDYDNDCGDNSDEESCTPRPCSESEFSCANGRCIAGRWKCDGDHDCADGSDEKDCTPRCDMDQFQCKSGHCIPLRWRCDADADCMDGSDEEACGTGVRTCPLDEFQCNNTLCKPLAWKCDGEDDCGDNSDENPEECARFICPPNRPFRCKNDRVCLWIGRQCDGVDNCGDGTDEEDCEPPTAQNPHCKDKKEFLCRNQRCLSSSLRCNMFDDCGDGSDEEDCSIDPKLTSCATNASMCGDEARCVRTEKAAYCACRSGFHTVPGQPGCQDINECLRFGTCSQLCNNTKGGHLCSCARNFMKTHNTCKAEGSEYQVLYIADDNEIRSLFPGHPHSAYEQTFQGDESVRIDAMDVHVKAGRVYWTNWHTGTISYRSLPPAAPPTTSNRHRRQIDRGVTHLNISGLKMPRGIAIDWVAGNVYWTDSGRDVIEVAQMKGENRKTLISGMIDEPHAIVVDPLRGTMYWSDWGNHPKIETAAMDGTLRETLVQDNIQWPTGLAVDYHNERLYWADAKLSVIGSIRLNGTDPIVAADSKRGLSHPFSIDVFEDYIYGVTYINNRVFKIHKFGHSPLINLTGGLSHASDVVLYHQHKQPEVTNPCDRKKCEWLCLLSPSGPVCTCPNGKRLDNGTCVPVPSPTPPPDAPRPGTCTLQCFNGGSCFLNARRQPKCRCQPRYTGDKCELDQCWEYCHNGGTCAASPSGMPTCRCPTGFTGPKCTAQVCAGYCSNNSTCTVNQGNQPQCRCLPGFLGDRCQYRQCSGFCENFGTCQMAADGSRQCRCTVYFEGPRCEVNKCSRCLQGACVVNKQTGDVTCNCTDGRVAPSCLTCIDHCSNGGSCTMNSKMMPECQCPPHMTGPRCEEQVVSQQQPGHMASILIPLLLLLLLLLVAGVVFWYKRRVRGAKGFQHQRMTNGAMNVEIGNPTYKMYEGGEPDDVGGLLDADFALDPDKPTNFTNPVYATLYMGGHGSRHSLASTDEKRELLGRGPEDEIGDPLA

These are yes or no findings as the source states them, for the method shown. In cells and extracts the contact can be indirect. Some binding calls cover weakened binding; strength is not graded here.

In test [1] the target is T1, lipocalin-2 (LCN2) (mouse (endogenous in C57BL/6 corpus callosum and primary astrocytes)) (UniProt P11672).
T1 sequence: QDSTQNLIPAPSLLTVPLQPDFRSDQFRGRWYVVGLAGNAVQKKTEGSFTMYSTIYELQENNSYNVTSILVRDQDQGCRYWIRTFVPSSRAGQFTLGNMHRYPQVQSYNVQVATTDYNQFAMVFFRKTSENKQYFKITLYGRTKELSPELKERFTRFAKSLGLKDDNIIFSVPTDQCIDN
Put plainly: co-IP; RIPA lysates of the ipsilateral corpus callosum of sham and dMCAO mice; 1 ug anti-LCN2 or anti-LRP1 antibody or control IgG overnight at 4 °C, protein A/G agarose 2 h at 4 °C; immunoblot with anti-LCN2 and anti-LRP1.

Test [2] concerns the target T1, lipocalin-2 (LCN2) (mouse (endogenous in C57BL/6 corpus callosum and primary astrocytes)). As to the kind of experiment: co-IP; RIPA lysates of primary cultured mouse astrocytes, control or LPS-treated; 1 ug anti-LCN2 or anti-LRP1 antibody or control IgG overnight at 4 °C, protein A/G agarose 2 h at 4 °C; immunoblot with anti-LCN2 and anti-LRP1. Background: Immunoblotting shows a protein as a band on a membrane.

For test [3], the target named is low-density lipoprotein receptor-related protein 1 (LRP1) (mouse (endogenous in C57BL/6 corpus callosum and primary astrocytes)) (UniProt Q91ZX7). As to the kind of experiment: co-IP; RIPA lysates of the ipsilateral corpus callosum of sham and dMCAO mice; 1 ug anti-LCN2 or anti-LRP1 antibody or control IgG overnight at 4 °C, protein A/G agarose 2 h at 4 °C; immunoblot with anti-LCN2 and anti-LRP1.

“low-density lipoprotein receptor-related protein 1 (LRP1) (from UniProt Q91ZX7 20-4545)”: the binding result in test [1] and in test [2] was “binds” each time.

B1: lipocalin-2 (LCN2) (protein, UniProt P11672 21-200)
chain: QDSTQNLIPAPSLLTVPLQPDFRSDQFRGRWYVVGLAGNAVQKKTEGSFTMYSTIYELQENNSYNVTSILVRDQDQGCRYWIRTFVPSSRAGQFTLGNMHRYPQVQSYNVQVATTDYNQFAMVFFRKTSENKQYFKITLYGRTKELSPELKERFTRFAKSLGLKDDNIIFSVPTDQCIDN
Take B1: in test [3], the binding entry is listed as “binds”.
